Laboratory results as given in the supplement of paper PMC3334620.
Over roughly 33,000 sequences, “E-score (-0.5 to 0.5)” has its median near -0.015; the highest 2% begin near 0.3. Some of the results follow.

biological target: T1, Abf1 (UniProt P14164); assay: PBM E-score (8-mer binding enrichment) (E-score (-0.5 to 0.5)); higher = stronger / more preferred TF binding; conditions: protein concentration: 200 nM; construct: GST-full length
T1 sequence: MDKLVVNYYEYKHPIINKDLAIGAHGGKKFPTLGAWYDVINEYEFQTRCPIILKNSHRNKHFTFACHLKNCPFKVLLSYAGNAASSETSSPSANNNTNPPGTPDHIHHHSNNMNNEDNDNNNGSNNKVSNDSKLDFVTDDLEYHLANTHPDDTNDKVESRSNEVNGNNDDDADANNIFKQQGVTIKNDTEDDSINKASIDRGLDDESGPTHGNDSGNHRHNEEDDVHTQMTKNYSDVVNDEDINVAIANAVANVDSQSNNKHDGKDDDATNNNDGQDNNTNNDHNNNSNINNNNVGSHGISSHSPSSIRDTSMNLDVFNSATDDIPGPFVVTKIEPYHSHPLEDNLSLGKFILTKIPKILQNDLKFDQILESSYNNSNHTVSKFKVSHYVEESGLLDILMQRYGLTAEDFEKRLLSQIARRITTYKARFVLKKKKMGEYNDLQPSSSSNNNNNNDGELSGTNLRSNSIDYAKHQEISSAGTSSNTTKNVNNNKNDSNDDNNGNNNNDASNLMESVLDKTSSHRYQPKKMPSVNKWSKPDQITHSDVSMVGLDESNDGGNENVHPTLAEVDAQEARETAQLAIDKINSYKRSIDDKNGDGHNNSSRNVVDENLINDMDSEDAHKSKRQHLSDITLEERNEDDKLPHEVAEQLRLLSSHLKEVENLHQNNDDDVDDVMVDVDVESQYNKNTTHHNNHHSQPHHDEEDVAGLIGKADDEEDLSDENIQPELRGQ
Method in brief: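 Universal all-10-mer Agilent arrays, fresh or stripped once, were converted to double-stranded form by primer extension. GST-tagged yeast transcription factors from PURExpress in vitro transcription/translation, full-length or DNA-binding domain only, were applied at about 100-200 nM and detected with fluorescent anti-GST. After masliner normalisation, the Universal PBM Analysis Suite scored each ungapped eight-base word together with its reverse complement by E-score.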

Row | Sequence | PBM E-score
1 | GAACCGTC | 0.156
2 | ACGGGCTC | -0.064
3 | GAGTTACC | 0.0669
4 | ACGGTTCA | 0.104
5 | AAATCCAA | 0.0385
6 | ATAACTGG | 0.03
7 | GAAGGAGA | -0.127
8 | CAGAGAGA | -0.117
9 | CTAGCAAG | -0.2
10 | GGAGAACA | -0.107
11 | CAAACCTG | -0.122
12 | GGTAAAAC | -0.16
13 | ACAATCCG | 0.0483
14 | CACGTATC | 0.143
15 | CAGGGTCA | -0.127
16 | ATGGAGGA | 0.105
17 | AGGGCGCA | -0.125
18 | CTGAGCGA | 0.119
19 | GAGGCCTA | -0.0355
20 | CACAACGA | 0.00899
21 | CAAGGTGG | -0.0477
22 | CGGTTTCA | -0.124
23 | CGCTGCCC | -0.331
24 | CCTTGTGA | 0.159
25 | AAATCGCA | -0.0291

Row | Sequence | PBM E-score
26 | AGAAATTC | -0.0184
27 | AGCTAAGG | -0.173
28 | ACCACCAC | -0.132
29 | CGGGGTAG | -0.0924
30 | AATTATTC | 0.142
31 | CAGTGCCG | 0.0401
32 | GCAGATTA | 0.0194
33 | AGTACGGA | 0.118
34 | ACTCAGAC | -0.149
35 | ACAGCCCG | -0.263
36 | AAAACAGT | -0.0562
37 | ATAGTCTC | -0.0195
38 | AAAGCTTT | -0.0815
39 | ACGCCTTG | -0.0276
40 | AGTCTGAA | 0.103
41 | AAAAGGCC | 0.0409
42 | AGAGAGAA | -0.123
43 | CTGATGGA | -0.239
44 | AATCTCTG | -0.0939
45 | CCGGCTGC | -0.0276
46 | CAATAAAA | 0.124
47 | AGAGGAAA | 0.136
48 | CTGTAGAA | -0.214
49 | CCAATTAA | 0.123
50 | AAAAACGG | 0.199

Some of the entries so far, as tab-separated lines:
Row	Sequence	PBM E-score
36	AAAACAGT	-0.0562
37	ATAGTCTC	-0.0195
38	AAAGCTTT	-0.0815
39	ACGCCTTG	-0.0276
40	AGTCTGAA	0.103

(further entries)

Row | Sequence | PBM E-score
51 | AGTGTTAA | 0.0847
52 | AACTCCGA | -0.0942
53 | ACTAACAG | 0.151
54 | GAGTCAGA | 0.0998
55 | ACACAGAG | -0.0877
56 | CCGTTATA | 0.195
57 | ACTGAGCC | -0.129
58 | ATGCATTA | 0.0378
59 | GATAGCAA | 0.072
60 | AGGACAAT | 0.125
61 | ACAACTGC | -0.0326
62 | AAATACAT | 0.0344
63 | ATGATCTG | 0.235
64 | AGGGACCT | 0.0273
65 | CCGGGAGC | -0.135
66 | CGCTGTGC | -0.107
67 | CAACATCC | -0.204
68 | CGACAAGC | -0.157
69 | GAAGTTAA | -0.109
70 | CAAACCAC | -0.0455
71 | ACATCAAT | 0.221
72 | AGGCTGAG | -0.121
73 | CCAAAGTA | -0.163
74 | ACATCAAC | 0.0683
75 | AAACCCAG | -0.0247

Row | Sequence | PBM E-score
76 | CCACCAAG | -0.172
77 | GACCAAGC | -0.0968
78 | AATAACAC | -0.216
79 | ATAGCCAG | -0.249
80 | GAAAAGGA | -0.138
81 | AACATCCA | -0.00442
82 | ATCAATGC | 0.0491
83 | GGACAAAC | 0.0295
84 | ATTTGTGA | 0.0665
85 | AAATTGAT | 0.135
86 | TCCTGCCA | -0.254
87 | GAGCTAAA | -0.072
88 | CCTGATCG | -0.106
89 | ACGGGTCA | -0.0888
90 | ACCTCCAA | 0.0943
91 | ATGGAAAA | 0.177
92 | AATCGAAC | -0.094
93 | GAGTGGTA | -0.111
94 | GTCCCCAC | -0.0723
95 | ATGTCAAT | 0.079
96 | AGCCTGCG | -0.225
97 | ATCCCATC | -0.153
98 | GTTACAAC | 0.0759
99 | ATCTTCGG | 0.0934
100 | AAACTAAT | 0.197

Row | Sequence | PBM E-score
101 | ATTTGGGA | 0.0496
102 | ACGTGCCT | -0.057
103 | ACATCAGC | -0.0459
104 | CGGACCCC | -0.261
105 | GACTAGAA | -0.0234
106 | ATCGGCGG | -0.109
107 | CTTGGGTA | 0.101
108 | CAGTTGTC | -0.106
109 | GGACTGCA | -0.103
110 | GTATCAGA | 0.0709
111 | CTTCGAAC | 0.0964
112 | TATAGGAA | -0.00961
113 | GCCACTCA | 0.0322
114 | GACTCACC | -0.125
115 | ATTGCAAT | 0.0939
116 | ATCGACAA | 0.0583
117 | AGTACCCC | -0.19
118 | AGGATGGA | -0.123
119 | ATATTAGG | 0.211
120 | AGCATGTC | -0.0399
121 | GGATAACA | 0.0228
122 | ACGTTCAA | 0.155
123 | GCCTATCC | -0.182
124 | CCCTAGAG | -0.106
125 | ATCAAAGA | 0.0583

Part of the list above, field by field:
ATTTGGGA
  PBM E-score: 0.0496
ACGTGCCT
  PBM E-score: -0.057
ACATCAGC
  PBM E-score: -0.0459
ATCGGCGG
  PBM E-score: -0.109

The list goes on.

Row | Sequence | PBM E-score
126 | GATTCGGC | -0.0444
127 | TAACGACA | 0.31
128 | GTAGCTCA | 0.0118
129 | ATGGTAGG | -0.06
130 | GCGCGAAC | -0.205
131 | ATTGTGCC | -0.123
132 | AGTGGTAG | -0.0986
133 | CAAAGTCG | 0.0944
134 | CTTAGGGC | -0.183
135 | ACCGAAAC | -0.0897
136 | TCCAACGA | 0.293
137 | CAGTACGA | 0.282
138 | CTAGATTA | -0.00126
139 | TAGTTCGA | 0.119
140 | CTACGCCC | -0.168
141 | CTATAAAC | 0.00144
142 | AACGGGAT | -0.108
143 | CGTTTTAC | 0.147
144 | AGTAGGGC | -0.0942
145 | CCACCAGG | -0.383
146 | ACCCTTTG | -0.24
147 | ACGTCGCC | 0.126
148 | GTCCTAAA | 0.106
149 | ACCGGGGG | -0.269
150 | ATTAAATC | 0.142

Row | Sequence | PBM E-score
151 | GTATAATA | 0.299
152 | ATTGATTA | 0.183
153 | GTGAGTAA | 0.00676
154 | CGTGTTAC | 0.0932
155 | AGGGCATA | -0.0418
156 | GTGTACAC | 0.0844
157 | TACAGGCA | 0.119
158 | AATAATAC | 0.233
159 | CCTGTCTC | -0.123
160 | AAGTGCAC | 0.0382
161 | AGATCATG | 0.262
162 | ACGCCGGG | -0.0153
163 | ACCCAGCT | -0.0896
164 | CAATGTAG | -0.136
165 | GACGTAGA | 0.0745
166 | AGGTCACC | 0.282
167 | AGCCAGAG | -0.0331
168 | CTCCGTAC | 0.22
169 | CGATAAAG | 0.228
170 | AGTCATGA | 0.149
171 | ACACGCTA | -0.0294
172 | GCGACTTA | -0.0826

Some of the entries so far, in markdown.

| Row | Sequence | PBM E-score |
| --- | --- | --- |
| 84 | ATTTGTGA | 0.0665 |
| 85 | AAATTGAT | 0.135 |
| 86 | TCCTGCCA | -0.254 |
| 87 | GAGCTAAA | -0.072 |
